In patent publication US12428446B2 (Eyebio Korea, priority 2019, dated 2025) one finds crude mass data, which are given here for 55 substances.

Where no end group is shown, it is not given here. [ ]: non-standard residue; d: D form. Hyp = O=C(O)[C@@H]1C[C@@H](O)CN1; Aib = CC(C)(N)C(=O)O

A short description of this data set: general procedure: Fmoc solid-phase peptide synthesis; 2-chlorotrityl resin; DIC/HOBt. The settings on record: whole synthesis, scale 50 mmol.

As for [Hyp]GQDVL [Example 22], the crude mass (run 1) is given as 20.76 g.
In turn, [Hyp]GQ[Aib]GL showed a crude mass of 14.68 g.
The same measure, in the same setting: under [Hyp]GQEVLA stands 17.53 g.
Still for that read-out and setting: with [Hyp]GQLGLAG the figure was 23.1 g; with Leu-Ala-Gly-Pro-Lys (LAGPK), 16.16 g; with [Hyp]GQEVL, 18.81 g.
On to [Hyp]GQDGLAG, for which the crude mass stood at 27.5 g.
The same measure, in the same setting: under [Hyp]GLAGPK stands 18.63 g.
Same read-out and setting: with GLAGPK the figure was 18.63 g; with [Hyp]GQDVLA, 20.76 g.
On the same count and under the same terms, under GQDGLA stands 20.80 g; under [Hyp]GQDGLA, 24.4 g.
[Hyp]GQLLL registered a crude mass of 20.26 g.
The same measure, in the same setting: under Hyp-Gly-Gln-Glu-tert Leu-Leu-Ala stands 20.35 g; under [Hyp]GQDVLAG, 30.26 g.
Same read-out and setting: under [Hyp]GQE[Aib]LA stands 22.48 g.
In turn, [Hyp]GQDVL [Example 34] had a crude mass (run 1) of 20.62 g.
Substance QLGLAGPK gave a crude mass of 26.4 g.
Same read-out and setting: under [Hyp]GQDAL stands 22.12 g; under [Hyp]GQDA, 17.10 g.
On the same count and under the same terms, with [Hyp]GQD[Aib] the figure was 8.96 g; with [Hyp]GQHGL, 20.64 g; with [Hyp]GQD[Aib]LA, 14.68 g.
The same measure, in the same setting: with [Hyp]GQEV the figure was 19.74 g; with QDGLAG, 19.28 g.
Take [Hyp]GQDLLA: the crude mass amounted to 24.80 g.
Same read-out and setting: under DGLAGP stands 18.87 g.
Substance [Hyp]GQELLA registered a crude mass of 15.41 g.
The same measure, in the same setting: under [Hyp]GQAGLA stands 20.2 g.
On the same count and under the same terms, under DGLAGPK stands 21.37 g.
Still for that read-out and setting: under [Hyp]GQLVLA stands 19.39 g; under [Hyp]GQLLLA, 22.60 g.
[Hyp]GQLV gave a crude mass of 15.41 g.
Same read-out and setting: with [Hyp]GQDLL the figure was 22.48 g; with [Hyp]GQAL, 13.57 g; with [Hyp]GQELL, 20.76 g.
[Hyp]GQALL gave a crude mass of 12.44 g.
Turning to [Hyp]GQDGPK, the crude mass came out at 21.35 g.
With [Hyp]GQAGL, the crude mass came out at 11.82 g.
Same read-out and setting: under [Hyp]GQAG stands 24.4 g; under [Hyp]GQAVL, 10.47 g.
Turning to Hyp-Gly-Gln-Glu-Phenyl Gly-Leu-Ala, the crude mass is 23.91 g.
Substance [Hyp]GQLL came in with a crude mass of 12.91 g.
Still for that read-out and setting: with [Hyp]GQDGL the figure was 21.1 g; with [Hyp]GQAV, 11.94 g.
On the same count and under the same terms, under [Hyp]GQDL stands 20.30 g; under [Hyp]GQDALA, 24.50 g; under cis-4F-Pro-Gly-Gln-Asp-Gly, 15.91 g.
The same measure, in the same setting: with [Hyp]GQDV the figure was 23.25 g.
The substance [Hyp]GQ[dD]L gave a crude mass of 8.41 g.
Consider [Hyp]GQLVL, for which the crude mass is given as 20.76 g.
In the case of [Hyp]GQEL, the crude mass worked out at 18.66 g.
Still for that read-out and setting: with [Hyp]GQDG the figure was 16.7 g; with LGLAGPK, 23.25 g; with QDGLAGPK, 28.3 g.
